Reference: patent US20040063651A1, “Remedies for hepatitis c” (priority 2000, published 2004)
Some entries share one result that the patent states for a list of compounds.

Tested on: Hepatitis C Virus (HCV)
Experiment: Inhibitory effect on HCV proliferation in infected MT-2C cells (nested RT-PCR detection limit dilution of HCV genome)
Format: cell-based
Conditions: FIG. 1, negative control detected up to 30-fold or 100-fold dilution
Procedure: Inhibitory effect on HCV proliferation of the compounds of Synthetic Example 1, Synthetic Example 2, Synthetic Example 10 and Synthetic Example 11 described above was measured by the following process.
Measurement of anti HCV proliferation inhibitory activity was performed in accordance with a known process (Kato, N. et. al., Biochem. Biophs. Res. Commun. 206, 863-869, 1995).
MT-2C cells that are cells derived from human T cells (Kato, N. et. al., Biochem. Biophs. Res. Commun. 206, 863-869, 1995) were cultured in an RPMI 1640 medium (Gibco-BRL 11875-101) supplemented with FBS (Foetal Bovine Serum, Gibco-BRL10082-147) at 10%. Thus cultured MT-2C cells (1×10^6 cells) were suspended in 200 uL of an F-12 medium (Gibco-BRL 11059-029) added with EDTA (ethylenediamine tetraacetic acid) to yield final concentration of 5 mM. Thereto was added 20 μL of a serum derived from a hepatitis C patient, followed by infection at 37° C. for 2 hours. After the infection, the cells were washed three times with 1 mL of PBS (Phosphate buffered saline), suspended in 6 mL of an RPMI medium added with FBS at 10%. The suspended cells were seeded on a 48 well culture plate, and incubated in a CO2 incubator at 32° C. for 3 days.
Thereto was added the compound of Synthetic Example 1, Synthetic Example 2, Synthetic Example 10 or Synthetic Example 11 dissolved in DMSO (Dimethyl Sulfoxide) in an amount of thousandths of the medium, and the mixture was cultured for 3 days. A medium adjusted to have the same concentration of the identical compound was added to each well in a two-fold volume, followed by an additional culture for 4 days. Cells were harvested for each of the samples, and total cellular RNA was purified. For the RNA purification, ISOGEN (NIPPON GENE, 311-02501) was used. In order to quantitatively determine an HCV RNA genome in the purified RNA, the following operation was carried out.
Using 1 μg of the purified RNA, a reverse transcription reaction was performed in a total volume of 20 uL at 37° C. for 1 hour. Subsequently, an inactivation treatment of the reverse transcriptase was carried out at 100° C. for 30 minutes. SuperScript™ II (Gibco BRL 18064-014) was used as a reverse. transcriptase, and an oligoDNA (Gibco BRL) having 20 bases which are complementary to the sequence of base position 317 through base position 336 of HCV-J strain (Kato, N. et. al. Proc. Natl. Acad. Sci. USA 87, 9524-9528, 1990) was used as a primer.
Product of the reverse transcription reaction was diluted to 3-fold, 10-fold, 30-fold and 100-fold with sterilized and distilled water. […]

Structure (SMILES)	detection limit dilution (fold) of an HCV genome (0.1 μM added)	detection limit dilution (fold) of an HCV genome (10 μM added)	detection limit dilution (fold) of an HCV genome (1.0 μM added)
O=c1ccn([C@@H]2O[C@H](CO)[C@@H](F)[C@H]2O)c(=O)[nH]1 [Synthetic Example 1, 3′-deoxy-3′-fluorouridine]	up to 10-fold or 30-fold	up to 3-fold or at 3-fold	–
O=c1[nH]c(=O)n([C@@H]2O[C@H](CO)[C@@H](F)[C@H]2O)cc1F [Synthetic Example 2, 3′-deoxy-5,3′-difluorouridine]	–	up to 3-fold or at 3-fold	up to 10-fold or 30-fold
